The text below walks through data of paper doi:10.1101/2025.07.22.666133.

Protein sequences, listed by entry. Tags and fused reporters are not part of them. Lines headed by an entry give the natural chain unless they say otherwise; changes in a name come on top.
UniProt P02545: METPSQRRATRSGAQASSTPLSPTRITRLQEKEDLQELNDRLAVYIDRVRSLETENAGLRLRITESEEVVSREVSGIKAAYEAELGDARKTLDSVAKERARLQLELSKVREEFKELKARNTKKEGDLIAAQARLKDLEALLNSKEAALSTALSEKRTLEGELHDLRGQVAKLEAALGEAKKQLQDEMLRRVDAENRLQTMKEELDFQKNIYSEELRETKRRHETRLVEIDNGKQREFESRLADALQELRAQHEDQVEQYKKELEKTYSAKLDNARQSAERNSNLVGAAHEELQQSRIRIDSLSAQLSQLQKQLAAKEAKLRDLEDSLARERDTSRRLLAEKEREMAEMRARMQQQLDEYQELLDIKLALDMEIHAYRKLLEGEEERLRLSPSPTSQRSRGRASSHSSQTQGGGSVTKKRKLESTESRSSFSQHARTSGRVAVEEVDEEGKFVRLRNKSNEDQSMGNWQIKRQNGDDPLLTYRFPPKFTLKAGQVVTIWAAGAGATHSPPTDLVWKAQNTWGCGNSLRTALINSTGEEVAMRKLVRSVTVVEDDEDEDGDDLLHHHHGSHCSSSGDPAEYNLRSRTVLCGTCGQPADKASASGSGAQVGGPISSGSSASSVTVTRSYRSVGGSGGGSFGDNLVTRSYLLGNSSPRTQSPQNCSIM

Results are given in words; binding and its absence hold for the method and conditions named. Binding seen in cells or lysates may run through a third protein. Here binding means that the protein was enriched with, or labelled near, the bait; the list need not be complete.

The target in this assay is FLAG-tagged full-length human lamin A (human) (UniProt P02545). Description: affinity purification with mass spectrometry.

B1: Filamin A-interacting protein 1-like (protein, UniProt Q6P6L0 1-1131)
chain: MRSRSSNAEGSAPKQIPRHSKFQDSIQDMKHRTHKKDPSCESEGVLPRPVSEKSHTGKGHHTEDLSRDDLLFLLSILEGELQARDEVIGILRAEKIDLALLEAQYGFVTPKKVLEALQRDAFQAKSAPWQEDIYEKPMNELDKVVEKHKESHRRILEQLLMVERSHRQTIMEMEEEKRKHKEYMKKSDEFINLLEQECERLKKLIDQETASQEKKEQEKEKRIKTLKEELTKLKSFALMVVDEQQRLTAQLALQRQKIQALTTSAKETQGKLALAEARAQEEEQKATRLEKELQTQTTEFHQNQDKIMAKLTNEDSQNRQLRQKLAALSRQIDELEETNRSLRKAEEELQDIKDKINKGEYGNSGIMDEVDELRKRVLDMEGKDEELIKMEEQCRDLNKRLEKETVQSKDFKLEVDKLSVRITALEKLEDALDKSKQECYSLKCNLEKEKMTTKQLSEELESLNARIKELEAIESRLEKTEITLKDDLTKLKTLTVMLVDERKTMSEKLKQTEDKLQSTTSQLQAEQNKVTTVTEKLIEETKRALKSKTDAEEKMYSVTKERDDLRNKLKAEEEKGHDLLSKVTILKNRLQSLEAIEKDFVKNKLNQDSSKSTAALHQENNKIKELSQEVENLKLKLKDMKAIEDDLMKTEDEYETLERRYANERDKAQFLSQELEHAKMELAKYKLAEKTESSHEQWLFRRLQEEEAKSGHLSREVDALKEKIHEYMATEDLICHLQGDHSLLQKKLNQQENRNRDLGREIENLTKELERYRHFSKSLRPSLNGRRISDPQVFSKEVQTEAADSEPPDYKSLIPLERAVINGQFYEENEDQDDDPNEEESVLSFRCSQSSSLPMNRKLWIPWMKSKEGHPQNGKIQTKSNGNFVQPGDLVLSHTPGQPLHIKVTPDHIQNTATLEITSPTTESPHSYTSTAVIPNCGTPKQRITILQNASITPIKSKSSTESLMNLEQSMSPVTMATFARAQTPESCGSVTPERTMSPIQVLAMTGSPSSPEQGCSPEPIEISAKHAIFRVSPDRQSSWQFQRSNSNSSSVITTEDNKIHIHLGSPYMQAVAGPMRPASPSAPLQDNRTQGLTNGALNKTTNKVTSSITITPTATPLPRQSQITVSNIYN
Regarding B1, the binding result is reported as “binds”.

B2: Sun1 (protein, UniProt Q9D666 1-913)
chain: MDFSRLHTYTPPQCVPENTGYTYALSSSYSSDALDFETEHKLEPVFDSPRMSRRSLRLVTTASYSSGDSQAIDSHISTSRATPAKGRETRTVKQRRSASKPAFSINHLSGKGLSSSTSHDSSCSLRSATVLRHPVLDESLIREQTKVDHFWGLDDDGDLKGGNKAATQGNGELAAEVASSNGYTCRDCRMLSARTDALTAHSAIHGTTSRVYSRDRTLKPRGVSFYLDRTLWLAKSTSSSFASFIVQLFQVVLMKLNFETYKLKGYESRAYESQSYETKSHESEAHLGHCGRMTAGELSRVDGESLCDDCKGKKHLEIHTATHSQLPQPHRVAGAMGRLCIYTGDLLVQALRRTRAAGWSVAEAVWSVLWLAVSAPGKAASGTFWWLGSGWYQFVTLISWLNVFLLTRCLRNICKVFVLLLPLLLLLGAGVSLWGQGNFFSLLPVLNWTAMQPTQRVDDSKGMHRPGPLPPSPPPKVDHKASQWPQESDMGQKVASLSAQCHNHDERLAELTVLLQKLQIRVDQVDDGREGLSLWVKNVVGQHLQEMGTIEPPDAKTDFMTFHHDHEVRLSNLEDVLRKLTEKSEAIQKELEETKLKAGSRDEEQPLLDRVQHLELELNLLKSQLSDWQHLKTSCEQAGARIQETVQLMFSEDQQGGSLEWLLEKLSSRFVSKDELQVLLHDLELKLLQNITHHITVTGQAPTSEAIVSAVNQAGISGITEAQAHIIVNNALKLYSQDKTGMVDFALESGGGSILSTRCSETYETKTALLSLFGVPLWYFSQSPRVVIQPDIYPGNCWAFKGSQGYLVVRLSMKIYPTTFTMEHIPKTLSPTGNISSAPKDFAVYGLETEYQEEGQPLGRFTYDQEGDSLQMFHTLERPDQAFQIVELRVLSNWGHPEYTCLYRFRVHGEPIQ
Turning to B2, the binding result is listed as “binds”.
